In PMC7959344:
Results are given in words; binding and its absence hold for the method and conditions named. Binding seen in cells or lysates may run through a third protein. A result given as binding can be weak or reduced; the word gives no strength. Where a sequence is shown, tags or fusion partners need not be part of it.

Target: V5-tagged RRV 26–95 gH, expressed alone (rhesus monkey rhadinovirus (RRV) isolate 26–95)

B1: myc-tagged full-length human Plxdc1 (receptor, UniProt Q8IUK5-1 19-500)
chain: LSPQPGAGHDEGPGSGWAAKGTVRGWNRRARESPGHVSEPDRTQLSQDLGGGTLAMDTLPDNRTRVVEDNHSYYVSRLYGPSEPHSRELWVDVAEANRSQVKIHTILSNTHRQASRVVLSFDFPFYGHPLRQITIATGGFIFMGDVIHRMLTATQYVAPLMANFNPGYSDNSTVVYFDNGTVFVVQWDHVYLQGWEDKGSFTFQAALHHDGRIVFAYKEIPMSVPEISSSQHPVKTGLSDAFMILNPSPDVPESRRRSIFEYHRIELDPSKVTSMSAVEFTPLPTCLQHRSCDACMSSDLTFNCSWCHVLQRCSSGFDRYRQEWMDYGCAQEAEGRMCEDFQDEDHDSASPDTSFSPYDGDLTTTSSSLFIDSLTTEDDTKLNPYAGGDGLQNNLSPKTKGTPVHLGTIVGIVLAVLLVAAIILAGIYINGHPTSNAALFFIERRPHHWPAMKFRSHPDHSTYAEVEPSGHEKEGFMEAEQC
B1 was tested, and the binding was “binds”.
